The list is a part of this screen's results and no random one: it gathers tests that were run many times, whatever their T/C, doses with no T/C, and many T/C values between a quarter and a half above the control. Other doses and runs of a compound stand elsewhere. T/C: endpoint of the treated group in % of that of the vehicle group. Some entries give survivors of the animals treated and no T/C: the source files T/C as zero there, which appears to mark a toxic dose or a test without result, not a measured value. Some survivor counts are full or nearly so, which does not show that the dose was tolerated: the source hardly ever lists a survival T/C far under the control, and the zero likely stands for such cases as well. Counts of survivors are from the toxicity check (mostly the fifth day) where no day follows; animals may have died later. Schedule codes are those of the source, read here as Q, the interval in days (D) or hours (H), X, the number of doses. Some entries were tested several times; the results are listed from low to high. Where survival is the endpoint, the PubChem record calls one and a half times the control and up active, and a quarter to a half above the control has no call in these data; cut-offs in other NCI protocols can differ.

For this assay, the system named is L1210 leukemia ip in BDF1 mice, survival T/C. In words: NCI In Vivo Anticancer Drug Screen. Data for tumor model L1210 Leukemia (intraperitoneal) in B6D2F1 (BDF1) mice. The note with it: T/C endpoint: mean survival time, higher T/C = longer survival.

`NNC(=O)CNc1cc(Cl)cc(Cl)c1`: the survivor count was 3 of 3 (dose: 100.0 mg/kg/injection, schedule: Q04DX002 (ip), vehicle: carboxymethylcellulose (CMC)); 0 of 6 (dose: 400.0 mg/kg/injection, schedule: Q01DX001 (ip), vehicle: carboxymethylcellulose (CMC)); 6 of 6 (dose: 400.0 mg/kg/injection, schedule: Q01DX009 (ip), vehicle: carboxymethylcellulose (CMC)); 0 of 3 (dose: 400.0 mg/kg/injection, schedule: Q04DX002 (ip), vehicle: Klucel (hydroxypropylcellulose) (HPC)); 2 of 3 and 3 of 3 (dose: 400.0 mg/kg/injection, schedule: Q04DX002 (ip), vehicle: carboxymethylcellulose (CMC)); 1 of 6 (dose: 400.0 mg/kg/injection, schedule: Q04DX003 (ip), vehicle: carboxymethylcellulose (CMC)). For the same compound, the T/C (dose: 200.0 mg/kg/injection, schedule: Q04DX002 (ip), vehicle: carboxymethylcellulose (CMC)) is 133 % of control.

Regarding `CCC1C(=O)CC(C(=O)O)C1C(=O)O` (configuration not stated), the survivor count (dose: 400.0 mg/kg/injection, schedule: Q04DX002 (ip), vehicle: saline with Tween-80) is on record as 3 of 3.

For the compound `Cc1cc(O)[nH]c(=O)c1`, the survivor count was 1 of 4 (dose: 100.0 mg/kg/injection, schedule: Q01DX001 (ip), vehicle: saline); 0 of 4 (dose: 200.0 mg/kg/injection, schedule: Q01DX001 (ip), vehicle: saline); 2 of 4 (dose: 400.0 mg/kg/injection, schedule: Q01DX001 (ip), vehicle: saline).

On to `ClC(Cl)(Cl)c1cccc(C(Cl)(Cl)Cl)c1`, for which the survivor count (dose: 400.0 mg/kg/injection, schedule: Q01DX009 (ip), vehicle: Klucel (hydroxypropylcellulose) (HPC)) is reported as 6 of 6.
